In US20040072170A1:
Results are given in words; binding and its absence hold for the method and conditions named. Some binding calls cover weakened binding; strength is not graded here. Values belong to the binder of their own block, whether it stands above or below them.

Amino acid sequences for entries named in this document (tags omitted). Residues count along the entry.
UniProt P35609, residues 432-894: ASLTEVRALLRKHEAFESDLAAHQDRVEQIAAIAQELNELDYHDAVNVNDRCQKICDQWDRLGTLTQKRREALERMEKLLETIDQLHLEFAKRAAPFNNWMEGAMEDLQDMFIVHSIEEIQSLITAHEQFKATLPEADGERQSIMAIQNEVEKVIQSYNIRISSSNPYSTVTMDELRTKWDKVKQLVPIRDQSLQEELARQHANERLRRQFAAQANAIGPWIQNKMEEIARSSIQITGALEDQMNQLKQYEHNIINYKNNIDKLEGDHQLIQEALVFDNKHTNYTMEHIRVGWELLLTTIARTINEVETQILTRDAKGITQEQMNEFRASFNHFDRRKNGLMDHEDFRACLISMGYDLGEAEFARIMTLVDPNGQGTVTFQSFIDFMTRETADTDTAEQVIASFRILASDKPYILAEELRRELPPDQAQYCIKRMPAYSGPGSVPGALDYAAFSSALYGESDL
UniProt P12883, residues 1200-1935: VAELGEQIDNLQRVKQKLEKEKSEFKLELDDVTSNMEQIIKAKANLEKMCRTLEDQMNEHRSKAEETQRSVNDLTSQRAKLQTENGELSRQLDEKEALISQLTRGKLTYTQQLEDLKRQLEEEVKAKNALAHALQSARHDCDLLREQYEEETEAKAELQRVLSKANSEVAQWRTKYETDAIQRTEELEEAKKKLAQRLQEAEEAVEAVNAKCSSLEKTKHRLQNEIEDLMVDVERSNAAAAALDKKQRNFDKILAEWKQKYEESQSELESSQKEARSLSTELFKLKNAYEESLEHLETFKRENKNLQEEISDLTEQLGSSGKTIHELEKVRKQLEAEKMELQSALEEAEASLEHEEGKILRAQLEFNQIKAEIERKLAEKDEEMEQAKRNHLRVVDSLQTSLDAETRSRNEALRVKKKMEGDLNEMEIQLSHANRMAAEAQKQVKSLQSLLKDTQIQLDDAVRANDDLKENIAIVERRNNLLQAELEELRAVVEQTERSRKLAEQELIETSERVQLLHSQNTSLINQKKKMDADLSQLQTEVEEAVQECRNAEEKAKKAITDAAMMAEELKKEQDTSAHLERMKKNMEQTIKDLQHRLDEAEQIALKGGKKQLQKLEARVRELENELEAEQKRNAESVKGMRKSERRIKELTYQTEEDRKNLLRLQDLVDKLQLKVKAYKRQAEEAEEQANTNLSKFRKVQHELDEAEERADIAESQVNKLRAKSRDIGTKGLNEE
UniProt Q9UER7, residues 612-740: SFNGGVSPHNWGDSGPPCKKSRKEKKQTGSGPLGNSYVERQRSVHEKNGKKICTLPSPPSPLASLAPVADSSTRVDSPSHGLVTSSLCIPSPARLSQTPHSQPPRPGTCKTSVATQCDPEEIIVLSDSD

Legend:
[1] = biological target: α-actinin 2 (M86406) (human) (UniProt P35609); assay: yeast two-hybrid screen, AAF63623 as bait against a human heart cDNA library
[2] = biological target: beta myosin heavy chain (M21665) (human) (UniProt P12883); assay: yeast two-hybrid screen, AAD45360 as bait against a human heart cDNA library
Daxx (AB015051) (human) = Daxx (AB015051) (human) (UniProt Q9UER7); assay: yeast two-hybrid screen, 66214pep as bait against a human heart cDNA library

binding [1]: binds
B1: AAF63623 (SMP) (protein)
chain: MLSHNTMMKQRKQQATAIMKEVHGNDVDGMDLGKKVSIPRDIMLEELSHLSNRGARLFKMRQRRSDKYTFENFQYQSRAQINHSIAMQNGKVDGSNLEGGSQQAPLTPPNTPDPRSPPNPDNIAPGYSGPLKEIPPEKFNTTAVPKYYQSPWEQAISNDPELLEALYPKLFKPEGKAELPDYRSFNRVATPFGGFEKASRMVKFKVPDFELLLLTDPRFMSFVNPLSGRRSFNRTPKGWISENIPIVITTEPTDDTTVPESEDL

binding [2]: binds
B2: AAD45360, Apolipoprotein B mRNA editing protein 2 (APOBEC-2) (enzyme)
chain: MAQKEEAAVATEAASQNGEDLENLDDPEKLKELIELPPFEIVTGERLPANFFKFQFRNVEYSSGRNKTFLCYVVEAQGKGGQVQASRGYLEDEHAAAHAEEAFFNTILPAFDPALRYNVTWYVSSSPCAACADRIIKTLSKTKNLRLLILVGRLFMWEEPEIQAALKKLKEAGCKLRIMKPQDFEYVWQNFVEQEEGESKAFQPWEDIQENFLYYEEKLADILK

binding (Daxx (AB015051) (human)): binds
B3: 66214pep (protein)
chain: MYMSKQPVSNVRAIQANINIPMGAFRPGAGQPPRRKECTPEVEEGVPPTSDEEKKPIPGAKKLPGPAVNLSEIQNIKSELKYVPKAEQ
